Source: paper PMC12677912
These are yes or no findings as the source states them, for the method shown. Binding seen in cells or lysates may run through a third protein. Some entries that bind do so weakly or less than the wild type. Tags and fused reporters may be left off the sequences shown.

Target: T1, FLAG-POU3F2 (UniProt P20265)
T1 sequence: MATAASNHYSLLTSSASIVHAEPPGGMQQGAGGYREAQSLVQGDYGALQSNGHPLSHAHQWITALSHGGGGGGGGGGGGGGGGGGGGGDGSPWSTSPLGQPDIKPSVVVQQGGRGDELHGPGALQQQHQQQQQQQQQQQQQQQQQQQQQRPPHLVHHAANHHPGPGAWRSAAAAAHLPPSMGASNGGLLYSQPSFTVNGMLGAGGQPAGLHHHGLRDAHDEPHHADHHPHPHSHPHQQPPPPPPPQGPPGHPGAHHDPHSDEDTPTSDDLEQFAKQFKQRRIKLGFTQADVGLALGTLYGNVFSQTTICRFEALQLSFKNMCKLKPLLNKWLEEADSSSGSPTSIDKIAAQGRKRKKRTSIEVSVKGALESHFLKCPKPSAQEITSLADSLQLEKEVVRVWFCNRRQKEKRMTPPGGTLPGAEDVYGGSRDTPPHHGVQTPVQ
Assay: co-IP; immunoprecipitation of POU3F2 in HEK293T cells overexpressing HA-ADNP, FLAG-POU3F2 or both, followed by western blot

binding: binds
B1: HA-ADNP (protein, UniProt Q9H2P0 1-1102)
chain: MFQLPVNNLGSLRKARKTVKKILSDIGLEYCKEHIEDFKQFEPNDFYLKNTTWEDVGLWDPSLTKNQDYRTKPFCCSACPFSSKFFSAYKSHFRNVHSEDFENRILLNCPYCTFNADKKTLETHIKIFHAPNASAPSSSLSTFKDKNKNDGLKPKQADSVEQAVYYCKKCTYRDPLYEIVRKHIYREHFQHVAAPYIAKAGEKSLNGAVPLGSNAREESSIHCKRCLFMPKSYEALVQHVIEDHERIGYQVTAMIGHTNVVVPRSKPLMLIAPKPQDKKSMGLPPRIGSLASGNVRSLPSQQMVNRLSIPKPNLNSTGVNMMSSVHLQQNNYGVKSVGQGYSVGQSMRLGLGGNAPVSIPQQSQSVKQLLPSGNGRSYGLGSEQRSQAPARYSLQSANASSLSSGQLKSPSLSQSQASRVLGQSSSKPAAAATGPPPGNTSSTQKWKICTICNELFPENVYSVHFEKEHKAEKVPAVANYIMKIHNFTSKCLYCNRYLPTDTLLNHMLIHGLSCPYCRSTFNDVEKMAAHMRMVHIDEEMGPKTDSTLSFDLTLQQGSHTNIHLLVTTYNLRDAPAESVAYHAQNNPPVPPKPQPKVQEKADIPVKSSPQAAVPYKKDVGKTLCPLCFSILKGPISDALAHHLRERHQVIQTVHPVEKKLTYKCIHCLGVYTSNMTASTITLHLVHCRGVGKTQNGQDKTNAPSRLNQSPSLAPVKRTYEQMEFPLLKKRKLDDDSDSPSFFEEKPEEPVVLALDPKGHEDDSYEARKSFLTKYFNKQPYPTRREIEKLAASLWLWKSDIASHFSNKRKKCVRDCEKYKPGVLLGFNMKELNKVKHEMDFDAEWLFENHDEKDSRVNASKTADKKLNLGKEDDSSSDSFENLEEESNESGSPFDPVFEVEPKISNDNPEEHVLKVIPEDASESEEKLDQKEDGSKYETIHLTEEPTKLMHNASDSEVDQDDVVEWKDGASPSESGPGSQQVSDFEDNTCEMKPGTWSDESSQSEDARSSKPAAKKKATMQGDREQLKWKNSSYGKVEGFWSKDQSQWKNASENDERLSNPQIEWQNSTIDSEDGEQFDNMTDGVAEPMHGSLAGVKLSSQQA
